Measured values published in doi:10.1101/2025.04.28.651057.
Changes are numbered by the printed parent chain. Results are given in words; binding and its absence hold for the method and conditions named. Binding seen in cells or lysates may run through a third protein. Some binding calls cover weakened binding; strength is not graded here. For some of these results: Where a sequence is shown, tags or fusion partners need not be part of it.

Chains of the proteins cited; added tags and fusions are not shown.
UniProt Q7Z5G4: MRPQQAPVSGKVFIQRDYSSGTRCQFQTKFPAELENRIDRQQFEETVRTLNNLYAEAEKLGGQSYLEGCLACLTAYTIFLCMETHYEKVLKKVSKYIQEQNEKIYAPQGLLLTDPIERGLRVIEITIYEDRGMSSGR
UniProt Q9ULC8: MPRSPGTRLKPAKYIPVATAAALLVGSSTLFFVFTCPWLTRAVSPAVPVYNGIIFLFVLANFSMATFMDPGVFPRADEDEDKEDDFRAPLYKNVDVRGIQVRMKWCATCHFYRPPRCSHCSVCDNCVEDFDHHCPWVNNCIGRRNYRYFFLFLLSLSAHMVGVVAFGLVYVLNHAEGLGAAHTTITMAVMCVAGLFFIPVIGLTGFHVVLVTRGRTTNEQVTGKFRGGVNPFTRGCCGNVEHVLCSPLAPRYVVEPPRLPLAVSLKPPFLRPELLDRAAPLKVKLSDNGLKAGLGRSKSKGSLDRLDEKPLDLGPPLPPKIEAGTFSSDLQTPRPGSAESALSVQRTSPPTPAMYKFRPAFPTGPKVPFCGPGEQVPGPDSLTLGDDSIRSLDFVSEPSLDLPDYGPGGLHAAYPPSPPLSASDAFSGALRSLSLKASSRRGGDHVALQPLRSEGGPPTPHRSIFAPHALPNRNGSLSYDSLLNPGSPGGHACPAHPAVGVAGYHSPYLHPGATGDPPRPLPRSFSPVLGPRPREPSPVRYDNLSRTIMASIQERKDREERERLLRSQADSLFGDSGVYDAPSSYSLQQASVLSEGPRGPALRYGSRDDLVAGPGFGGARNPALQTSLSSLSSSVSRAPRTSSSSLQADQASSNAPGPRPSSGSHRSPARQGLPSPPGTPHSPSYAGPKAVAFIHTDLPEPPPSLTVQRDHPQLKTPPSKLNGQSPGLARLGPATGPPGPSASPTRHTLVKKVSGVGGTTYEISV
UniProt Q9Y397: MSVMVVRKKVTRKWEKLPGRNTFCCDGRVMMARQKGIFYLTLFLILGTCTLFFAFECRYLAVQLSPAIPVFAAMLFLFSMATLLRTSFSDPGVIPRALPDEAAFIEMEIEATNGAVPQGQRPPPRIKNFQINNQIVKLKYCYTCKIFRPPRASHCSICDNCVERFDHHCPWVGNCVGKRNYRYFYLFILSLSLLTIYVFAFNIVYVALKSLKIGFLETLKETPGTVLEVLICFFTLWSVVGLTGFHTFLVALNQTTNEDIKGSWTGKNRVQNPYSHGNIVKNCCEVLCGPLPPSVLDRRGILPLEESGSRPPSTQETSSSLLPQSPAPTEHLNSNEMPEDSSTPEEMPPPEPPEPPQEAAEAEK

Legend:
Experiment in all cases: co-IP
[1] = target: T1, GOLGA7B^2CS (Cys78Ser, Cys81Ser) (human) (UniProt Q2TAP0)
T1 sequence: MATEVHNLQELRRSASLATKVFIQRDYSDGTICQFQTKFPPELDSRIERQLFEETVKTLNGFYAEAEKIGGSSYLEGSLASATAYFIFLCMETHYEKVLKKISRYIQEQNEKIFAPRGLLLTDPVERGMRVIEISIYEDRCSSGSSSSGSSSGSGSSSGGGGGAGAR

[2] = target: T2, 3xFLAG-GOLGA7B (human) (human) (UniProt Q2TAP0)
T2 sequence: T1 sequence with S78C, S81C

[3] = target: 3xFLAG-GOLGA7 (human) (human) (UniProt Q7Z5G4)

Row | Substance | binding [1] | binding [2] | binding [3]
1 | endogenous human ZDHHC8 (from UniProt Q9ULC8 1-765) (enzyme) | no binding | binds | 
2 | endogenous human ZDHHC9 (from UniProt Q9Y397 1-364) (enzyme) |  | no binding | binds
